# US8895497B2, “Cathepsin S inhibitors” (DCB-USA, LLC, priority 2009, dated 2014)
# The chains behind the UniProt entries cited, without tags or fusion partners. Residues count along the entry.
# UniProt P25774, 115-331: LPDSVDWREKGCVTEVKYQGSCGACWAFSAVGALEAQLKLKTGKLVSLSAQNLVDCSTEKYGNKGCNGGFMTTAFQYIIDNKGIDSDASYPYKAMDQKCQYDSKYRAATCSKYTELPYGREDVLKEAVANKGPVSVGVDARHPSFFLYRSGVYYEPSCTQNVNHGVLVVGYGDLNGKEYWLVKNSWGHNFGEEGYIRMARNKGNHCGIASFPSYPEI
# Some of these results come from one statement about several compounds together.
# Experiments:
# recombinant cathepsin S = molecular target: T1, recombinant cathepsin S (Homo sapiens, UniProt P25774); assay: Cathepsin S assay (Z-VVR-AMC fluorogenic substrate); format: biochemical; conditions: for IC50: 37° C.
# T1 construct: made in house; host or cells: E. coli (pET23a)
# [1] = test system: highly-metastatic human lung adenocarcinoma CL1-5 cells; assay: Cancer cells migration assay (MultiScreen-MIC plates); format: cell-based; conditions: 24 h at 37° C., 8 μm-pore membrane
# HUVECs = HUVECs migration assay (in vitro wound healing); format: cell-based; conditions: 1% FBS and 20 ng/ml VEGF, 24-hour incubation
Compound,inhibitory activity (cathepsin S) (recombinant cathepsin S),IC50 (recombinant cathepsin S) [nM],inhibited CL-15 cell migration [1] [%],inhibited HUVECs migration (HUVECs) [%]
"CCOC(=O)CNC(=O)C(=O)C(COCc1ccccc1)NC(=O)C(CC1CCCCC1)NC(=O)c1ccc(C(=O)OC)c(N)c1 (stereo in doubt) [Compound 21, Methyl 2-amino-4-([(1R)-2-(1-[(benzyloxy)methyl]-3-[(2-ethoxy-2-oxoethyl)amino]-2,3-dioxopropylamino)-1-(cyclohexylmethyl)-2-oxoethyl]aminocarbonyl)benzoate]",exhibited inhibitory activity,< 50,≥ 25,≥ 25
"CCOC(=O)CNC(=O)C(=O)C(COCc1ccccc1)NC(=O)C(CC1CCCCC1)NC(=O)c1cccc([N+](=O)[O-])c1 (stereo in doubt) [Compound 2, Ethyl 2-[4-(benzyloxy)-3-((2R)-3-cyclohexyl-2-[(3-nitrobenzoyl)amino]propanoylamino)-2-oxobutanoyl]aminoacetate]",exhibited inhibitory activity,< 50,≥ 25,≥ 25
CCOC(=O)CNC(=O)C(=O)C(COCc1ccccc1)NC(=O)[C@H](CC1CCCCC1)NC(=O)c1cccc2c1C(=O)c1ccccc1-2 (stereo partly drawn) [Compound 36],exhibited inhibitory activity,< 50,≥ 25,≥ 25
"CCOC(=O)CNC(=O)C(=O)C(COCc1ccccc1)NC(=O)C(CC1CCCCC1)NC(=O)c1cncc(C)n1 (stereo in doubt) [Compound 24, Ethyl 2-(4-(benzyloxy)-3-[((2R)-3-cyclohexyl-2-[(6-methyl-2-pyrazinyl)carbonyl]aminopropanoyl)amino]-2-oxobutanoylamino)acetate]",exhibited inhibitory activity,< 50,≥ 25,≥ 25
"CCOC(=O)CNC(=O)C(=O)C(COCc1ccccc1)NC(=O)C(CC1CCCCC1)NC(=O)c1cc(F)ccc1F (stereo in doubt) [Compound 45, Ethyl 2-[4-(benzyloxy)-3-((2R)-3-cyclohexyl-2-[(2,5-difluorobenzoyl)amino]propanoylamino)-2-oxobutanoyl]aminoacetate]",exhibited inhibitory activity,< 50,≥ 25,≥ 25
"CCOC(=O)CNC(=O)C(=O)C(COCc1ccccc1)NC(=O)C(CC1CCCCC1)NC(=O)Cc1cccc2ccccc12 (stereo in doubt) [Compound 16, Ethyl 2-(4-(benzyloxy)-3-[(2R)-(3-cyclohexyl-2-[2-(1-naphthyl)acetyl]aminopropanoyl)amino]-2-oxobutanoylamino)acetate]",exhibited inhibitory activity,< 50,≥ 25,≥ 25
"CCOC(=O)CNC(=O)C(=O)C(COCc1ccccc1)NC(=O)C(CC1CCCCC1)NC(=O)c1ccc(OC)cc1 (stereo in doubt) [Compound 3, Ethyl 2-[4-(benzyloxy)-3-((2R)-3-cyclohexyl-2-[(4-methoxybenzoyl)amino]propanoylamino)-2-oxobutanoyl]aminoacetate]",exhibited inhibitory activity,< 50,≥ 25,≥ 25
"CCOC(=O)CNC(=O)C(=O)C(COCc1ccccc1)NC(=O)C(CC1CCCCC1)NC(=O)c1ccc(C)cc1 (stereo in doubt) [Compound 22, Ethyl 2-[4-(benzyloxy)-3-((2R)-3-cyclohexyl-2-[(4-methylbenzoyl)amino]propanoylamino)-2-oxobutanoyl]aminoacetate]",exhibited inhibitory activity,< 50,≥ 25,≥ 25
"CCOC(=O)CNC(=O)C(=O)C(COCc1ccccc1)NC(=O)C(CC1CCCCC1)NC(=O)c1ccc(Cl)c(N)c1 (stereo in doubt) [Compound 4, Ethyl 2-[3-((2R)-2-[(3-amino-4-chlorobenzoyl)amino]-3-cyclohexylpropanoylamino)-4-(benzyloxy)-2-oxobutanoyl]aminoacetate]",exhibited inhibitory activity,< 50,≥ 25,≥ 25
